The values that follow come from US20220162182A1, “KINASE INHIBITOR COMPOUNDS AND COMPOSITIONS AND METHODS OF USE” (ICAHN SCHOOL OF MEDICINE AT MOUNT SINAI, priority 2018, published 2022).

The target in experiment [1] is DYRK1/DYRK1A (Homo sapiens, UniProt Q13627). Kind of experiment: DYRK1/DYRK1A IC50 assay (Reaction Biology Corp.). To be noted: read-out: IC50 (nM), DYRK1A; DYRK1/DYRK1A assay from Reaction Biology Corp.
The target of experiment [2] is DYRK1A (Homo sapiens, UniProt Q13627). Kind of experiment: KINOMEscan DYRK1A binding assay (DiscoverX), Kd determination. To be noted: read-out: Kd (nM), DYRK1A Binding Activity, eleven serial three fold dilutions, highest concentration 60 μM, several values in a cell = repeat determinations. The procedure: Compounds were tested for DYRK1A binding activity at DiscoverX. DiscoverX uses proprietary KINOMEscan® Assay (Fabian et al., “A Small Molecule-kinase Interaction Map for Clinical Kinase Inhibitors,” Nat. Biotechnol. 23(3):329-336 (2005), which is hereby incorporated by reference in its entirety). Compounds were screened for DYRK1A activity at a single concentration of 3 μM in duplicates. Similarly, the dissociation constant Kd of the hit compounds from the initial screening was determined at DiscoverX using their proprietary KINOMEscan® Assay. Kd values are determined using eleven serial three fold dilutions with the highest concentration of 60 μM.

Structures are written as SMILES. The match of structure and compound is tentative.

In the case of `O=c1[nH]c2ccc(-c3cncc(NCc4c[nH]cn4)c3)cc2[nH]1`, in experiment [1], the concentration for half-maximal inhibition (IC50) came out at 15.2 nM. Consider `O=c1[nH]c2ccc(-c3cncc(NCc4cccc(Cl)c4)c3)cc2[nH]1`, for which the Kd in experiment [2] was 1.3 nM.

The term IC50 denotes the point on the concentration scale where inhibition reaches its midpoint.
